The record followed here is article PMC9515611.

The chains behind the UniProt entries cited, without tags or fusion partners. Residues count along the entry.
UniProt P11021, residues 19-654: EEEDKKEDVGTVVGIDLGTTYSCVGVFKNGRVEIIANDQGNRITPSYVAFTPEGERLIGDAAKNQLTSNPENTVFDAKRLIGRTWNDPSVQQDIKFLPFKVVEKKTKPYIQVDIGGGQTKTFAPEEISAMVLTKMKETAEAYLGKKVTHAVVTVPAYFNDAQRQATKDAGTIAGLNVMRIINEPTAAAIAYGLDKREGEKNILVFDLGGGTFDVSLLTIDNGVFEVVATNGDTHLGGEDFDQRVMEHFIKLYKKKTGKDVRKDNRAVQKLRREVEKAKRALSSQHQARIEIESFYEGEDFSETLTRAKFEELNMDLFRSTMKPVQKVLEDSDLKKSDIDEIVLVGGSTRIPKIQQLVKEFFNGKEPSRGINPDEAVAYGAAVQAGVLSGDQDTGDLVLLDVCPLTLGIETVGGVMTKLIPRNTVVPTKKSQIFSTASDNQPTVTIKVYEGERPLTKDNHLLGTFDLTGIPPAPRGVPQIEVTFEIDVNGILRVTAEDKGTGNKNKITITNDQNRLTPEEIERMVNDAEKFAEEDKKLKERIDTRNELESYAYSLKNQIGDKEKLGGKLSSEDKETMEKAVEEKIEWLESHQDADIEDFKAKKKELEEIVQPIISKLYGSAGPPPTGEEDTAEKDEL

In this assay the target is T1, DLC1-Flag (deleted in liver cancer-1), expressed in HEK-293T (human) (UniProt Q96QB1).
T1 sequence: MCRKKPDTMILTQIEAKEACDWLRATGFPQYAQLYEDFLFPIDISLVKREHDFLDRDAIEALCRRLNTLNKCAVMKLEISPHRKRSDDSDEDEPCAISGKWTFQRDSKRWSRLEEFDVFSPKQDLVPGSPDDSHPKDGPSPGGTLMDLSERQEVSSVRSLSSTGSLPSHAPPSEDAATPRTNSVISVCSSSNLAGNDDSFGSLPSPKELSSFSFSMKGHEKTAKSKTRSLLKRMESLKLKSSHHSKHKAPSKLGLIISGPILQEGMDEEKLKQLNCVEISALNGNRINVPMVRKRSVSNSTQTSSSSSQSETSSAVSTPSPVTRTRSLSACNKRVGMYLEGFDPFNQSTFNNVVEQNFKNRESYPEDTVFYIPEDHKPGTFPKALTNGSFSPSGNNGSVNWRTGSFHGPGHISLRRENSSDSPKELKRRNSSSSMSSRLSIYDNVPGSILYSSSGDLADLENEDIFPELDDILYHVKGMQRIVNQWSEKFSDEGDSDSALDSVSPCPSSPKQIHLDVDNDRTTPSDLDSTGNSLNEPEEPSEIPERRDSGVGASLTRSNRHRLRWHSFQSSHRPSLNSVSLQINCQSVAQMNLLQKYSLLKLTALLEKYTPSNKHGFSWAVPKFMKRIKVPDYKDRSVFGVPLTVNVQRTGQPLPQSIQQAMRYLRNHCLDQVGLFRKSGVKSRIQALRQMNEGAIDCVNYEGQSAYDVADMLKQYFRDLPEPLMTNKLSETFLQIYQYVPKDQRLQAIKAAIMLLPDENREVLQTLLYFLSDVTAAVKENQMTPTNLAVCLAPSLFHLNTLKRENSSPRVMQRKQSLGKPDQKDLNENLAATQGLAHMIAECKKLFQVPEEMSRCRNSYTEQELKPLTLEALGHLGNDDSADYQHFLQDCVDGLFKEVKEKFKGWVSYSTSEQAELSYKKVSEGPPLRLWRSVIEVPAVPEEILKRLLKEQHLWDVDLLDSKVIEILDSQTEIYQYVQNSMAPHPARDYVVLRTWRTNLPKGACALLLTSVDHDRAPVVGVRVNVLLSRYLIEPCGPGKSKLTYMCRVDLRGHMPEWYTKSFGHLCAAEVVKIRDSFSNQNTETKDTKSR
Description: affinity purification with mass spectrometry; cytoplasmic extracts of HEK-293T stably expressing DLC1-Flag, IP with anti-Flag M2 magnetic beads; specific band identified by MS.

No constants are given. Whether binding was seen depends on the method and setting. In cells and extracts the contact can be indirect. These calls come from enrichment with a bait or labelling near it, and not all partners need be listed. Sequences can lack the tags named with a protein.

As for “glucose-regulated protein 78 kDa (GRP78), endogenous in HEK-293T (from UniProt P11021 19-654)”, the binding entry is on record as “binds”.
